Results on 22 targets are retold here after the supplement of paper PMC11006884.

The chains behind the UniProt entries cited, without tags or fusion partners. Where a name states a change or a piece, a line headed by the entry shows the natural chain unless it says otherwise.
UniProt P07355, whole entry, looked up: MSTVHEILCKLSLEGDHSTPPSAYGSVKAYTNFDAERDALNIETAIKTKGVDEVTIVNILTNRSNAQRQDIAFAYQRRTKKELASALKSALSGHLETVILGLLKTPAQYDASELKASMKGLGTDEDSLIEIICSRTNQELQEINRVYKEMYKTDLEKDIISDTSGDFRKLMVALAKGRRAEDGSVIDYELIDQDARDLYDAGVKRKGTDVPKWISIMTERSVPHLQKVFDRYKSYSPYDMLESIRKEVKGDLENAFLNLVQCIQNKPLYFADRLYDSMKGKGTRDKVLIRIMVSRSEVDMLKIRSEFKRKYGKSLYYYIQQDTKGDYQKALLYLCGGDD
UniProt O96017, whole entry, looked up: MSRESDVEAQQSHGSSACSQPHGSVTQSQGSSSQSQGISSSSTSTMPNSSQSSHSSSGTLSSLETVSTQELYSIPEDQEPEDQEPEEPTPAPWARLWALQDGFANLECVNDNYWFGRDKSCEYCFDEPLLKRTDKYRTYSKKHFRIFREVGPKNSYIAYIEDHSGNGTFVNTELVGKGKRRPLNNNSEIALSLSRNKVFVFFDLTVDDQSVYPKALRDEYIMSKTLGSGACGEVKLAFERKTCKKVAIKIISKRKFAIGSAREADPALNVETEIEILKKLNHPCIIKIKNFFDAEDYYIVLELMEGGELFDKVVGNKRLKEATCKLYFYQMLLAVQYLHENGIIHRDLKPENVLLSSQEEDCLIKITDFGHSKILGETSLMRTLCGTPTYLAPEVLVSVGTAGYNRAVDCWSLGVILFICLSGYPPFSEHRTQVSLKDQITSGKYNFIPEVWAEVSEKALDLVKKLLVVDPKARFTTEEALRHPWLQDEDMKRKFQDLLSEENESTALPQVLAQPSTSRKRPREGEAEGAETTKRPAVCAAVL
UniProt P04181: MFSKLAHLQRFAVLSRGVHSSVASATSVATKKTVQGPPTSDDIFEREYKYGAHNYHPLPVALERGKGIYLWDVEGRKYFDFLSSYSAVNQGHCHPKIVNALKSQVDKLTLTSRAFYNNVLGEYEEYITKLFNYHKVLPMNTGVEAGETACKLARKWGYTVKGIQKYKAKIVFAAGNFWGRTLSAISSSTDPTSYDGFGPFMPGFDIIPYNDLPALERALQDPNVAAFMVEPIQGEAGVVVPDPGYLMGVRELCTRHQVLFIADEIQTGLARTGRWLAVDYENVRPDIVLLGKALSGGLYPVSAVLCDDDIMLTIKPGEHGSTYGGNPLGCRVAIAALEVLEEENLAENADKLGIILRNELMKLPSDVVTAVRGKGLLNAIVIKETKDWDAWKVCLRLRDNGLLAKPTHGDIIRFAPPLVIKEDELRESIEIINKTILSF
UniProt P07339: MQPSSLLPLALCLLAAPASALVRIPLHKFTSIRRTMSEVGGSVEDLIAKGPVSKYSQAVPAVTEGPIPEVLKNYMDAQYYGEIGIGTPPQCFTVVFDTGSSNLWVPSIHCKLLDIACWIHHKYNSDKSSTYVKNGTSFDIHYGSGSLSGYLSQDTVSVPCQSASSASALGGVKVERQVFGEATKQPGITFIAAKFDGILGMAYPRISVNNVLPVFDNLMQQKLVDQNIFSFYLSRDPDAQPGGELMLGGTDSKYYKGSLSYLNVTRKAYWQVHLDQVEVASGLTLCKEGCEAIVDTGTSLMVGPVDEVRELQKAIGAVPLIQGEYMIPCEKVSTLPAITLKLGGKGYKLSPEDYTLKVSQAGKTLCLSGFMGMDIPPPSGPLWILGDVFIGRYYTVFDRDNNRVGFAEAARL
UniProt O95218: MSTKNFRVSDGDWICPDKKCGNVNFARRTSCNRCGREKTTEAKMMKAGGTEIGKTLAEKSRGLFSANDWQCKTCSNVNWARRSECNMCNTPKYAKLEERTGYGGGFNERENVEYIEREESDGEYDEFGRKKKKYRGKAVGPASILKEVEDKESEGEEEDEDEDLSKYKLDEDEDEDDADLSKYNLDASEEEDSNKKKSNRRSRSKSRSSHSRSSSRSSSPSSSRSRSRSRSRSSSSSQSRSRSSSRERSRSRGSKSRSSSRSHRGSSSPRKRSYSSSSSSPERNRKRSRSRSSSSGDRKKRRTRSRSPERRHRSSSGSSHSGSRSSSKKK
UniProt O95573: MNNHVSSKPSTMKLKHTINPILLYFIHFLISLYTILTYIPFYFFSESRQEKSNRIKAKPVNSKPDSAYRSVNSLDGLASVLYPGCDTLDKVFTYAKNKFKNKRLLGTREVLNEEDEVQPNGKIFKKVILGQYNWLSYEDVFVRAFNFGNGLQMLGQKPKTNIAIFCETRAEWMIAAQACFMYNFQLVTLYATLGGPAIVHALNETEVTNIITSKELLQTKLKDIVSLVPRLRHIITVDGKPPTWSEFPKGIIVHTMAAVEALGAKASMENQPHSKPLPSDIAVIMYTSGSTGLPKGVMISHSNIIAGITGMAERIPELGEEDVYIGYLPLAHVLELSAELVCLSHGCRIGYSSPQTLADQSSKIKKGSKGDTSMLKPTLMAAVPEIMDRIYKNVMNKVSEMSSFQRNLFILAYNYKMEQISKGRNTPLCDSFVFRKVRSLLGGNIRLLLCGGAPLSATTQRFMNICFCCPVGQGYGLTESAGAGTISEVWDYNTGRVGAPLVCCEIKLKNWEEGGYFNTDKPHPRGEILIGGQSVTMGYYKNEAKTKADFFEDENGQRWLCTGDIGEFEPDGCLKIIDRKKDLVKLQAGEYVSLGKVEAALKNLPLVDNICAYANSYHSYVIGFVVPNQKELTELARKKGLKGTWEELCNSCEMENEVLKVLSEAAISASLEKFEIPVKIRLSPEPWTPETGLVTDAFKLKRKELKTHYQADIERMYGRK
UniProt P04150: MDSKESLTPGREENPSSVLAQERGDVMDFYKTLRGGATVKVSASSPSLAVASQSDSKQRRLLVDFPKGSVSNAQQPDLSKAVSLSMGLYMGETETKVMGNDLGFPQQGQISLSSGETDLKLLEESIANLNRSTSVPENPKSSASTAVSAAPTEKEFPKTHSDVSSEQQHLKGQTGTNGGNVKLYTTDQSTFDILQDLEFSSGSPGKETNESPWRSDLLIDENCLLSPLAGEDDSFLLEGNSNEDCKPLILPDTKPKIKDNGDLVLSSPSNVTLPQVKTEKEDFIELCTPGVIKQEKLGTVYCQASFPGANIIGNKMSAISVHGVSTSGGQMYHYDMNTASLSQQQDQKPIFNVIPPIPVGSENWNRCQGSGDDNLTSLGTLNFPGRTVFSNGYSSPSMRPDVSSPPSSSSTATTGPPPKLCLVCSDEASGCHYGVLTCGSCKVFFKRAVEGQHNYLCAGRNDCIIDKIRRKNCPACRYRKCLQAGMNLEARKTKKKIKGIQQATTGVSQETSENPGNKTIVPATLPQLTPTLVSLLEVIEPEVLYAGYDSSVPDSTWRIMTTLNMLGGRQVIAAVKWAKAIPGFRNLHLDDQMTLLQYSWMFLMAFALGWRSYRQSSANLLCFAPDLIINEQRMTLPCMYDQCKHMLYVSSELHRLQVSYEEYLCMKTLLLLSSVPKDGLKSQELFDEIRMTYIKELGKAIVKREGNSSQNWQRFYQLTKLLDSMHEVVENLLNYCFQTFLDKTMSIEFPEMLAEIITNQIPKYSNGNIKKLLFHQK
UniProt O94804: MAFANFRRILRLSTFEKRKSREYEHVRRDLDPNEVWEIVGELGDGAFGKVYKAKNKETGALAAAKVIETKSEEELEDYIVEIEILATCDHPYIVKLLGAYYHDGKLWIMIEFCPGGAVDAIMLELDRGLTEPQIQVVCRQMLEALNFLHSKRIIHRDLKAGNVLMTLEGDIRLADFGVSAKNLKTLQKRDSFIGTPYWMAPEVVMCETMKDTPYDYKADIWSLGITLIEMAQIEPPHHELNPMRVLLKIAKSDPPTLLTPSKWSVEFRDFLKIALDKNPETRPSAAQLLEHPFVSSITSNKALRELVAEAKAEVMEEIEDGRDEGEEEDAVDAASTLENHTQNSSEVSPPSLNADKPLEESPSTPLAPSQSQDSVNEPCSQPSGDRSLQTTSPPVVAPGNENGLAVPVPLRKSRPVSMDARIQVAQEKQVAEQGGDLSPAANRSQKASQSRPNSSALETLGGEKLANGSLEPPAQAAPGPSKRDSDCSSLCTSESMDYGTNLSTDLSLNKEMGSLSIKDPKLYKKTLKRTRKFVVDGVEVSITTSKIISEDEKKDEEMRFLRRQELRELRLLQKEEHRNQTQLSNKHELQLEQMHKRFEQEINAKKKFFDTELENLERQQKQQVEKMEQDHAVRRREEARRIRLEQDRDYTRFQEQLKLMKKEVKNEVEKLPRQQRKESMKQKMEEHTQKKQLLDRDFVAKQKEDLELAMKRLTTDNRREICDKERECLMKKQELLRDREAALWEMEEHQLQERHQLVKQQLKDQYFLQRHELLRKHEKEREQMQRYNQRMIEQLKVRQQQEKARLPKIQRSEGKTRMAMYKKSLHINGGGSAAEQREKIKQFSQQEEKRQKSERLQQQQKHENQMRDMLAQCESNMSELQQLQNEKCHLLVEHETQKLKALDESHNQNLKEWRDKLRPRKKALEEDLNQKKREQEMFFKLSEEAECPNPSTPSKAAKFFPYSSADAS
UniProt O95319: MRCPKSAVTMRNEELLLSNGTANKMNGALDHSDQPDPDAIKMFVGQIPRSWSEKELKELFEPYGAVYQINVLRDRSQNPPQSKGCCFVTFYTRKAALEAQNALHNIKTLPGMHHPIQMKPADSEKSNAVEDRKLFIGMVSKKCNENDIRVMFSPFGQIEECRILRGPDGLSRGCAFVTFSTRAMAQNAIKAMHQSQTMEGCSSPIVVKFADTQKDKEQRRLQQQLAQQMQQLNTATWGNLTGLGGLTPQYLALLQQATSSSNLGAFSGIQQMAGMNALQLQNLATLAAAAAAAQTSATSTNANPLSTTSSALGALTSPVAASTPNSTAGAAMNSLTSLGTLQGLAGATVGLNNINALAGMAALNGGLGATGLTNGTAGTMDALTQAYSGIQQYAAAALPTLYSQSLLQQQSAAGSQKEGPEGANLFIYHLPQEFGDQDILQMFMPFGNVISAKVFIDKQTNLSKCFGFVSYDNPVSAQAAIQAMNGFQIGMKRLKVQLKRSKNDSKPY
UniProt P06733, whole entry, looked up: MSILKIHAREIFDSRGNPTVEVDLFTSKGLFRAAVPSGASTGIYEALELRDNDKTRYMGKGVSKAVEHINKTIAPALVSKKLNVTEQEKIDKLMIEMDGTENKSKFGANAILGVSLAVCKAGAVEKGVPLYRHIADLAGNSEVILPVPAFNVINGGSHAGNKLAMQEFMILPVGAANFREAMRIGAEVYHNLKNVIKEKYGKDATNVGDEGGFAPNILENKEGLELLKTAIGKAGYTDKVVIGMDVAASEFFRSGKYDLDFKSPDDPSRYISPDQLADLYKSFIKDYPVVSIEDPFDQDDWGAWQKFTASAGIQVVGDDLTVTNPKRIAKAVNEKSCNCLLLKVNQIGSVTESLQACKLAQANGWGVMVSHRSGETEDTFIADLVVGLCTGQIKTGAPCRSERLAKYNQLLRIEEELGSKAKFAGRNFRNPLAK
UniProt O95801: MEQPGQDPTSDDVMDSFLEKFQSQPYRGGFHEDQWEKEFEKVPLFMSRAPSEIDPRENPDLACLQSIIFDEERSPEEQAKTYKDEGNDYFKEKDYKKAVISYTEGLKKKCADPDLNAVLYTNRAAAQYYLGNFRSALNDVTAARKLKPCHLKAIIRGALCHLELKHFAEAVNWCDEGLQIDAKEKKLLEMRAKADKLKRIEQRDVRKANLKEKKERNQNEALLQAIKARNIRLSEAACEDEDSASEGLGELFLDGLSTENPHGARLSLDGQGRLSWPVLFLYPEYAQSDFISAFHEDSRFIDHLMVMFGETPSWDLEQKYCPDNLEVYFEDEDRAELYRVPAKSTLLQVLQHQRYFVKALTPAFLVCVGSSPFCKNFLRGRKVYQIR
UniProt O94776: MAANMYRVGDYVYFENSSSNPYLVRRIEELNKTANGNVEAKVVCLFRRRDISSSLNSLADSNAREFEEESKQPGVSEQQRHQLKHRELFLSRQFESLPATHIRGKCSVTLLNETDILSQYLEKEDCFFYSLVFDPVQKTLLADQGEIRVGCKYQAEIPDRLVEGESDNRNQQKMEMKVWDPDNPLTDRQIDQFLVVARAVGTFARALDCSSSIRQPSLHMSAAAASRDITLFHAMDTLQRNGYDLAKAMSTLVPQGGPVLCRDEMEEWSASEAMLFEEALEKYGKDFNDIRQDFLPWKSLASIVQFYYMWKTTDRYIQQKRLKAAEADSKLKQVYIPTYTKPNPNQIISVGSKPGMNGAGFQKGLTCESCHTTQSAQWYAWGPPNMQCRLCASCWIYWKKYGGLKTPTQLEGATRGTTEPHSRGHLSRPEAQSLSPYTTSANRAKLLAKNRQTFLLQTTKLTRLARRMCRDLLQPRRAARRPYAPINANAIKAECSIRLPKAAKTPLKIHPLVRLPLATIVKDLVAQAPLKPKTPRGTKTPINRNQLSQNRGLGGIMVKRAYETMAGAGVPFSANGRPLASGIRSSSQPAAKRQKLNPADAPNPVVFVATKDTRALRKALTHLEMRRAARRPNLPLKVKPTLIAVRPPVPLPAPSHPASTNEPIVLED

The list shows a part of the results, in another mix than the full data.

Compound in this assay: COC(=O)C#Cc1ccccc1 [methyl 3-phenylpropiolate]
In words: log2 ratio of iodoacetamide-alkyne labeling of the cysteine site, DMSO over compound (competition); higher = stronger covalent engagement of the cysteine by the compound, active = 1 or more. To be noted: 500 µM; treatment time 1 h; system: HEK293T cell lysate. A digest of the protocol:
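Electrophile (500 µM) or vehicle was added to HEK293T lysate (2 mg/mL) for 1 h at ambient temperature before iodoacetamide alkyne labelling (1 h) and click coupling to sCIP-TMT reagents. After pooling, overnight trypsin digestion at 37 °C, streptavidin enrichment and acid elution, peptides were measured by Orbitrap Eclipse LC-MS/MS with FAIMS and quantified in FragPipe. Each cysteine's log2 competition ratio compares mean control-channel with mean compound-channel reporter intensity, control over compound. Data came from duplicate channels across three replicates, excluding cysteines quantified in only one replicate.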
ANXA2 C133 (UniProt P07355): the “log2 ratio of iodoacetamide-alkyne labeling” value (“log2 ratio” below) was inactive: 0.123.
Next, PCNT C2628 (UniProt O95613): inactive: 0.0344.
Take UniProt O96017_C385: the “log2 ratio” value was inactive: 0.227.
Next, OAT C253 (UniProt P04181): inactive: 0.0787; CTSD C117 (UniProt P07339): inactive: 0.747; UniProt O96017_C539: inactive: 0.494.
The figure for ATP1A1 C211 (UniProt P05023) is inactive: 0.147; for TYMS C195 (UniProt P04818) it is inactive: -0.104; for ATP1A1 C428 (UniProt P05023) it is inactive: 0.234.
The figure for ZRANB2 C88 (UniProt O95218) is inactive: 0.263.
With ACSL3 C85 (UniProt O95573), the “log2 ratio” value was inactive: -0.29.
Next, UniProt O94822_C186: inactive: -0.317; NR3C1 C367 (UniProt P04150): inactive: 0.737; UniProt O94804_C947: inactive: 0.487.
As to UniProt O95319_C174, the “log2 ratio” value was inactive: 0.0243.
Next, RPLP0 C27 (UniProt P05388): inactive: 0.649; MBD3 C172 (UniProt O95983): inactive: 0.114.
The figure for ENO1 C357 (UniProt P06733) is inactive: -0.0848; for CAPN1 C115 (UniProt P07384) it is inactive: 0.0571.
Next, TTC4 C63 (UniProt O95801): inactive: 0.09.
In the case of HSPA4L C421 (UniProt O95757), the “log2 ratio” value was inactive: -0.0563.
For the target MTA2 C209 (UniProt O94776), the “log2 ratio” value was inactive: 0.19.
